Test results taken from patent publication US20020051978A1, “Methods and compositions for the identification, assessment, prevention and therapy of human cancers” (priority 2000, published 2002).
Where “and” joins values, the source holds several entries; their conditions need not be identical. Equal values may be shown once. Where a name gives a salt, the structure may show the parent alone. At least one read-out could not be matched to a standard name with certainty.

System: 60 cancer cell lines (NCI 60 cancer cell line series)
Experiment: NCI-DTP in vitro cancer screen, sulforhodamine B (SRB) growth inhibition, 48 hour exposure
Type: cell-based, human
Details: for sensitivity class Prostate PC-3(I) CL11001: cell line Prostate PC-3(I)
Description: Cancer Cell Line Preparation. Sixty cancer cell lines were obtained from the National Cancer Institute Developmental Therapeutics Program (NCI-DTP). Procedures for growing cells and testing compounds have been described previously (Scudiero et al., Cancer Res. 1988, 48:4827-4833; Stinson et al., Anticancer Res.; Myers et al., Electrophoresis 1997, 18:647-653). Cells are plated on day 0 at a density individualized for each cell line so that they will generally be sub-confluent at the end of the assay period. On day 1, a compound is added in the format for a duplicate-well, 5-dose, ten-fold interval dose response study.
No-drug, no-cell and no-growth controls are included. On day 3 the cells are processed for staining with sulforhodamine B (SRB), which reflects the amount of cell mass present at the end of a 48 hour exposure to the test agent. From dose response curves based on the SRB data, various parameters can be determined. The one used in the present study is the G15o, defined as the concentration of compound required to inhibit growth of the cell line by 50%. More precisely, the quantity used in the calculation to be described is the potency measure -log{GI50}.
Activity database (A). Table IA, consisting of the growth inhibition (GI5o) values for the 60 cell lines and 24 compounds, was created from the NCI-DTP in vitro cancer screen database. This subset of compounds was selected from the larger 23,000 compound database available from the DTP. The compounds were selected on the basis of their known mechanism of action and chemical structure. The average potency—log{GI50} was extracted from the comma-delimited text files available through the Web at http://www.nci.nih.gov/intra/lmp/jnwbio.htmrl. Subsequently, these log{GI5o} values were inspected manually and classified as indicating either Low, Medium or High sensitivity to each compound.

CN(Cc1cnc2nc(N)nc(N)c2n1)c1ccc(C(=O)N[C@@H](CCC(=O)O)C(=O)O)cc1 [Methotrexate]
3 and 2: classification of cell line as Low(1), Medium(2) or High(3) sensitivity to compound (Breast MCF7(I) CL5001) | classification of cell line as Low(1), Medium(2) or High(3) sensitivity to compound (Breast MDA-N CL5012) | sensitivity class Prostate PC-3(I) CL11001 | sensitivity class Renal CAKI-1 CL9015 (cell line Renal CAKI-1, CL9015)
1 and 2: classification of cell line as Low(1), Medium(2) or High(3) sensitivity to compound (CNS SNB-19 CL12002) | classification of cell line as Low(1), Medium(2) or High(3) sensitivity to compound (Melanoma MALME-3M CL10002) | classification of cell line as Low(1), Medium(2) or High(3) sensitivity to compound (Melanoma UACC-257 CL10021) | sensitivity class NSCLC NCI-H522 CL1003 (cell line NSCLC NCI-H522, CL1003)
2 and 3: classification of cell line as Low(1), Medium(2) or High(3) sensitivity to compound (Breast MDA-MB-435 CL5011) | classification of cell line as Low(1), Medium(2) or High(3) sensitivity to compound (Colon HT29(I) CL4001) | classification of cell line as Low(1), Medium(2) or High(3) sensitivity to compound (Colon SW-620 CL4009) | classification of cell line as Low(1), Medium(2) or High(3) sensitivity to compound (Leukemia CCRF-CEM(I) CL7003) | classification of cell line as Low(1), Medium(2) or High(3) sensitivity to compound (Leukemia MOLT-4 CL7006) | classification of cell line as Low(1), Medium(2) or High(3) sensitivity to compound (Melanoma M14 CL10014) | sensitivity class Ovarian OVCAR-8 CL6005 (cell line Ovarian OVCAR-8, CL6005) | sensitivity class Renal 786-O CL9018 (cell line Renal 786-O, CL9018)
2 and 1: classification of cell line as Low(1), Medium(2) or High(3) sensitivity to compound (CNS SNB-75(I) CL12005) | sensitivity class Ovarian SK-OV-3 CL6011 (cell line Ovarian SK-OV-3, CL6011)

CC[C@@]1(O)C(=O)OCc2c1cc1n(c2=O)Cc2cc3c(CN(C)C)c(O)ccc3nc2-1 [Topotecan]
3 and 2: classification of cell line as Low(1), Medium(2) or High(3) sensitivity to compound (Breast MCF7/ADRr CL5002) | classification of cell line as Low(1), Medium(2) or High(3) sensitivity to compound (Melanoma UACC-62 CL10020) | sensitivity class Renal SN12C CL9008 (cell line Renal SN12C, CL9008)
2 and 3: classification of cell line as Low(1), Medium(2) or High(3) sensitivity to compound (Breast BT-549 CL5013) | classification of cell line as Low(1), Medium(2) or High(3) sensitivity to compound (CNS SF-295 CL12015) | classification of cell line as Low(1), Medium(2) or High(3) sensitivity to compound (CNS U251(I) CL12009) | classification of cell line as Low(1), Medium(2) or High(3) sensitivity to compound (Leukemia HL-60(I) CL7008) | classification of cell line as Low(1), Medium(2) or High(3) sensitivity to compound (Leukemia SR CL7019) | classification of cell line as Low(1), Medium(2) or High(3) sensitivity to compound (Melanoma M14 CL10014)
1 and 2: classification of cell line as Low(1), Medium(2) or High(3) sensitivity to compound (Colon HCC-2998 CL4002) | classification of cell line as Low(1), Medium(2) or High(3) sensitivity to compound (NSCLC EKVX CL1008) | sensitivity class NSCLC NCI-H332M CL1017 (cell line NSCLC NCI-H332M, CL1017) | sensitivity class Ovarian OVCAR-3 CL6001 (cell line Ovarian OVCAR-3, CL6001)
2 and 1: classification of cell line as Low(1), Medium(2) or High(3) sensitivity to compound (Colon KM12 CL4017) | sensitivity class Ovarian IGROV1 CL6010 (cell line Ovarian IGROV1, CL6010)

CC[C@]1(O)C[C@@H]2CN(CCc3c([nH]c4ccccc34)[C@@](C(=O)OC)(c3cc4c(cc3OC)N(C)[C@H]3[C@@](O)(C(=O)OC)[C@H](OC(C)=O)[C@]5(CC)C=CCN6CC[C@]43[C@@H]65)C2)C1 [Vinblastine sulfate]
2 and 1: sensitivity class Ovarian OVCAR-4 CL6002 (cell line Ovarian OVCAR-4, CL6002) | sensitivity class Ovarian OVCAR-5 CL6003 (cell line Ovarian OVCAR-5, CL6003)
2 and 3: classification of cell line as Low(1), Medium(2) or High(3) sensitivity to compound (CNS SNB-75(I) CL12005) | classification of cell line as Low(1), Medium(2) or High(3) sensitivity to compound (Colon COLO-250 CL4010) | classification of cell line as Low(1), Medium(2) or High(3) sensitivity to compound (Colon HT29(I) CL4001) | sensitivity class Prostate DU-145 CL11003 (cell line Prostate DU-145, CL11003) | sensitivity class Prostate PC-3(I) CL11001
3 and 2: classification of cell line as Low(1), Medium(2) or High(3) sensitivity to compound (Colon HCT-116 CL4003) | classification of cell line as Low(1), Medium(2) or High(3) sensitivity to compound (Leukemia K562(I) CL7005) | classification of cell line as Low(1), Medium(2) or High(3) sensitivity to compound (Melanoma LOX IMVI CL10001)
1 and 2: classification of cell line as Low(1), Medium(2) or High(3) sensitivity to compound (Leukemia RPMI-8226(I) CL7010) | classification of cell line as Low(1), Medium(2) or High(3) sensitivity to compound (Melanoma UACC-257 CL10021) | sensitivity class Renal A498 CL9013 (cell line Renal A498, CL9013) | sensitivity class Renal ACHN CL9023 (cell line Renal ACHN, CL9023)
